According to article PMC9934649 (bioRxiv, 2023):

System: 403 wild-type (WT) human kinases
Experiment: Kinome-wide selectivity, scanMAX panel
Assay type: binding
Settings: 1 µM

| Compound | Number of kinases bound with PoC <10 [kinases] |
| --- | --- |
| O=C(Nc1c[nH]nc1C(=O)NC1CCNCC1)c1cc(F)cc(F)c1 [Compound 2, 4-(3,5-difluorobenzamido)-N-(piperidin-4-yl)-1H-pyrazole-3-carboxamide] | 4 |
| O=C(NCC1CCOCC1)c1n[nH]cc1NC(=O)c1c(F)cccc1F [Compound 4, 4-(2,6-difluorobenzamido)-N-((tetrahydro-2H-pyran-4-yl)methyl)-1H-pyrazole-3-carboxamide] | 5 |
